Source: PubChem BioAssay AID2517 (National Center for Advancing Translational Sciences (NCATS), 2010)
“And” between values parts separate entries of the source, which are not always exact repeats. Equal entries are not always repeated. Hit rate of the full screen: of about 350,000 compounds, about 1,200 (0.34%) were called active. This list was built around the results that the source calls inconclusive (neither active nor inactive); the mix of calls is not that of the screen. Calls follow the shape of the dose curve; as a rule, active = well fitted inhibition curve with a large enough effect; inconclusive = small, poorly fitted or top-dose-only effect; inactive = no such curve, though single readings can be large or run the other way. Potencies beside an inconclusive call are fits to weak or partial responses and may not hold up. The source holds several records for some structures; these can differ, active in one and inactive in another.

Amino acid sequences for entries named in this document (tags omitted).
UniProt P27695, whole entry, looked up: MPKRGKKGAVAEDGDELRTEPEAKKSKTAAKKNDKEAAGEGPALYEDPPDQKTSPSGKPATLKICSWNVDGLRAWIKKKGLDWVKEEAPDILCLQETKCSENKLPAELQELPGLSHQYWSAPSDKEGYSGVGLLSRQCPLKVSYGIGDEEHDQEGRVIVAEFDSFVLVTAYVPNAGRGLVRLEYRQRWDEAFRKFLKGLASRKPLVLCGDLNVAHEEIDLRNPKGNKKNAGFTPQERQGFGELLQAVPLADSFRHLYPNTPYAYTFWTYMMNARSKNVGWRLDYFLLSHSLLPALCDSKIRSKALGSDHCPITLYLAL

Molecular target: DNA repair nuclease/redox regulator APEX1 (Homo sapiens) (UniProt P27695)
Test: qHTS Assay for Inhibitors of the Human Apurinic/apyrimidinic Endonuclease 1 (APE1); also: nearly all actives have a fitted effect of over 55% in size
Conditions: recombinant APE1, TAMRA/BHQ-2 abasic DNA cleavage fluorescence; series mostly up to 65.8 µM
Outline: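 Readout is kinetic fluorescence (ex 525, em 598 nm) from cleavage of 50 nM TAMRA/BHQ-2 THF abasic duplex by 0.75 nM APE1, compound added 15 min beforehand at RT.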
Potency is read from the fitted curve at half-maximal effect.

SMILES | Potency
Cc1cc(OC(=O)N2CCCCC2)c(C(C)C)cc1[N+](C)(C)C | inactive
C[N+]1(C)C2CCC1CC(OC(=O)c1ccccc1)C2 (stereo unspecified) | inactive
O=C(c1n[nH]c(=O)c2ccccc12)N1CCC2(CC1)OCCO2 | inconclusive: 10 µM [inhibitor, partial curve, poor fit]
C#CCOS(=O)OC1CCCCC1Oc1ccc(C(C)(C)C)cc1 (stereo unspecified) | inactive
CC(C)C1C(=O)N2CCCC2[C@]2(O)O[C@@](NC(=O)[C@@H]3C=C4c5cccc6[nH]cc(c56)C[C@H]4N(C)C3)(C(C)C)C(=O)N12 (stereo partly specified) | inconclusive: 14.1 µM [inhibitor, partial curve]
CN(C)C(CSC(N)=O)CSC(N)=O | inactive
NCCc1cc(O)c(O)cc1O | active: 631 nM and active: 398 nM
O=C(N/N=C/c1c(O)n(Cc2ccccc2)c(=O)[nH]c1=O)c1ccccc1O | inactive
Clc1ccc(CSC(Cn2ccnc2)c2ccc(Cl)cc2Cl)cc1 (stereo unspecified) | inconclusive: 7.08 µM [inhibitor, full curve, poor fit]
CC(C)CCn1c(N)c(C(=O)NCc2cccs2)c2nc3ccccc3nc21 | inconclusive: 39.8 µM [inhibitor, partial curve]
O=C(N/N=C/c1c(O)n(Cc2ccco2)c(=O)[nH]c1=O)c1ccccc1O | inconclusive: 28.2 µM [inhibitor, single point]
Cc1c(C(=O)O)cccc1-n1c(C)cc(/C=C2\C(=O)NC(=O)N(c3ccc4c(c3)OCO4)C2=O)c1C | active: 14.1 µM
COc1cccc(CCNCc2c(F)cccc2F)c1 | inconclusive: 44.7 µM [inhibitor, single point]
CCN(CC)Cc1c[nH]c2ccccc12 | inconclusive: 2.51 µM [inhibitor, full curve, poor fit]
O=C1NC(=O)N(c2ccc(Cl)cc2)C(=O)/C1=C\c1ccc(Sc2nc3ccccc3[nH]2)o1 | inconclusive: 25.1 µM [inhibitor, partial curve]
CCc1ccc(C2C(C#N)=C(N)Oc3n[nH]c(CC(=O)OC)c32)cc1 (stereo unspecified) | inactive
CCOc1cc(N2CCOCC2)c(OCC)cc1NC(=O)C1=NN(c2cccc(C)c2)C(=O)CC1 | inactive
O=C1NC(=O)C(=Cc2ccc(-c3cc(Cl)ccc3[N+](=O)[O-])o2)C(=O)N1 | inconclusive: 12.6 µM [inhibitor, partial curve]
CC[C@@]1(O)C(=O)OCc2c1cc1n(c2=O)Cc2cc3ccccc3nc2-1 | inactive
O=c1c2ccccc2nc(Cc2cccc([N+](=O)[O-])c2)n1-c1ccc(O)cc1 | inconclusive: 3.55 µM [inhibitor, single point]
CO/C1=C\C(C)=C\[C@@H](C)[C@@H](O)[C@@H](C)C/C(C)=C/C=C/[C@H](OC)[C@@H]([C@@H](C)[C@@H](O)[C@H](C)[C@@]2(O)C[C@@H](O)[C@H](C)C(C(C)C)O2)OC1=O (stereo partly specified) | inconclusive: 10 µM [inhibitor, partial curve]
Cc1cc(C)cc(N2C(=O)/C(=C\c3ccc(N4CCN(C)CC4)o3)C(=O)NC2=S)c1 | inactive

SMILES | Potency
CC(C)C[C@H]1C(=O)N2CCC[C@@H]2[C@@]2(O)O[C@](NC(=O)[C@@H]3C=C4c5cccc6[nH]cc(c56)C[C@@H]4N(C)C3)(C(C)C)C(=O)N12 | inconclusive: 3.98 µM [inhibitor, full curve]
[O]=[Cr](=[O])([OH])[O][Cr](=[O])(=[O])[OH] | inactive and active: 25.1 µM
COc1ccc2[nH]cc(CCN)c2c1 | inactive
N#Cc1c(/N=C/c2c(O)n(Cc3ccco3)c(=O)[nH]c2=O)sc2c1CCCC2 | inconclusive: 25.1 µM [inhibitor, partial curve]
O=C(O)c1cccc2c1NC(c1cccc([N+](=O)[O-])c1)C1CC(Sc3ccccc3[N+](=O)[O-])C(Cl)C21 (stereo unspecified) | inactive
O=C(CCCCCCCCCCC(=O)NCc1cccnc1)NCc1cccnc1 | inconclusive: 7.08 µM [inhibitor, single point]
CC1(C)C[C@H]2C=C(C=O)[C@]3(C=O)C[C@]3(C)[C@H]2C1 | inactive
O=c1[nH]c(=O)n(C2CCCCC2)c(O)c1C1NCCc2ccccc21 (stereo unspecified) | inactive
CC(C)(C)n1cccc1/C=C1\C(=O)NC(=O)N(c2ccccc2)C1=O | inactive
CC(=O)CC(c1ccccc1[N+](=O)[O-])c1c(O)c2ccccc2oc1=O (stereo unspecified) | inconclusive: 7.94 µM [inhibitor, single point]
CC(N)[C@H](O)c1ccc(O)c(O)c1 (stereo partly specified) | active: 1 µM
CNC(C)Cc1ccc(OC)cc1 (stereo unspecified) | inactive
C=C(C)[C@@H]1CC[C@]2(C(=O)O)CC[C@]3(C)[C@H](CCC4[C@@]5(C)CC[C@H](O)C(C)(C)[C@@H]5CC[C@]43C)[C@@H]12 (stereo partly specified) | inactive
COc1ccc(CCN)cc1OC | inconclusive: 8.91 µM [inhibitor, single point]
CN1C(=O)NC(=O)/C(=C/c2ccc([N+](=O)[O-])s2)C1=O | inconclusive: 22.4 µM [inhibitor, partial curve]
O=C1NC(=O)C(CCc2ccncc2)(CCc2ccncc2)C(=O)N1CCc1ccc(F)cc1 | inconclusive: 4.47 µM [inhibitor, partial curve, poor fit]
c1cc(Cc2cnc[nH]2)ccn1 | inconclusive: 8.91 µM [inhibitor, single point]
CN1C[C@@H](NS(=O)(=O)N(C)C)C[C@@H]2c3cccc4c3c(cn4C)C[C@H]21 | inactive
O=C1NC(=S)N(C2CC2)C(=O)/C1=C/c1ccc2c(c1)CCN2CCCCl | inconclusive: 28.2 µM [inhibitor, single point]
Cc1cc(/C=C2/C(=O)NC(=O)N(Cc3ccco3)C2=O)c(C)n1-c1ccccc1 | inconclusive: 28.2 µM [inhibitor, partial curve]
CCCCN1C(=O)/C(=C/c2ccc(N(C)C)cc2)C(=O)N(Cc2ccco2)C1=O | inconclusive: 39.8 µM [inhibitor, single point]
COC(=O)c1cc(Oc2ccc(Cl)cc2Cl)ccc1[N+](=O)[O-] | inconclusive: 20 µM [inhibitor, single point]

SMILES | Potency
Oc1ccc(Cl)cc1Cc1ccccc1 | inconclusive: 6.31 µM [inhibitor, full curve, poor fit]
O=C(CSc1ccc(-c2ccco2)nn1)Nc1ccccc1 | inconclusive: 44.7 µM [inhibitor, single point]
CC(C)=CCc1c(O)cc2c(c1O)C(=O)CC(c1ccc(O)cc1)O2 (stereo unspecified) | inconclusive: 5.01 µM [inhibitor, full curve]
CC(C)=CCCC1(C)C=Cc2c(O)c3c(c(CC=C(C)C)c2O1)OC12C(CC4CC1C(C)(C)OC2(C/C=C(/C)C(=O)O)C4O)C3=O (stereo unspecified) | inactive
CCc1ccc(N2C(=O)NC(=O)/C(=C\C=C\c3ccco3)C2=O)cc1 | inconclusive: 17.8 µM [inhibitor, partial curve]
Cc1c(C(=O)c2ccc3ccccc3c2)c2cccc3c2n1[C@H](CN1CCOCC1)CO3 | inconclusive: 39.8 µM [inhibitor, partial curve]
CCCCC/C=C\C/C=C\C/C=C\C/C=C\CCCC(=O)Nc1ccc(O)cc1C | inconclusive: 8.91 µM [inhibitor, partial curve, poor fit]
Cc1c(C(=O)N2CCC3(CC2)OCCO3)oc2ccc(S(=O)(=O)N3CCCCC3)cc12 | inconclusive: 35.5 µM [inhibitor, single point]
CC[n+]1c(SC)ccc2cc(OC)ccc21 | inconclusive: 0.199 µM [inhibitor, full curve, poor fit]
COC(=O)CC1(CC(=O)OC)C(=O)N(c2ccccc2)C(=O)N(c2ccccc2)C1=O | inactive
O=C1SC(Cc2ccccc2)C(=O)N1c1ccccc1 (stereo unspecified) | inconclusive: 31.6 µM [inhibitor, single point]
O=C(Cc1ccc(S(=O)(=O)N2CCCC2)s1)N1CCN(c2ccc(F)cc2)CC1 | inconclusive: 39.8 µM [inhibitor, single point]
COc1cccc(-n2cnc3scc(-c4cccs4)c3c2=O)c1 | inconclusive: 31.6 µM [inhibitor, single point]
CCCCCOC(=O)c1ccccc1C(=O)OCCCCC | inactive
C=C[C@H]1CN2CC[C@H]1C[C@H]2[C@H](OC(=O)OCC)c1ccnc2ccc(OC)cc12 | inactive
CCOC(=O)C(O)(c1ccc(NC(=S)NC(=O)c2ccc(Cl)cc2Cl)cc1)C(F)(F)F (stereo unspecified) | inconclusive: 20 µM [inhibitor, partial curve]
CN1Cc2ccccc2[C@@H]2c3cccc4[nH]cc(c34)C[C@H]21 | inconclusive: 14.1 µM [inhibitor, full curve] and inconclusive: 28.2 µM [inhibitor, partial curve]
O=C1NC(=O)N(CCC2=CCCCC2)C(=O)/C1=C/c1ccc(O)cc1 | inconclusive: 25.1 µM [inhibitor, single point]
Nc1c(C(=O)NCCc2ccccc2)c2nc3ccccc3nc2n1CCN1CCOCC1 | inactive
c1ccc(CCCCN2CCC(c3ccccc3)CC2)cc1 | inconclusive: 35.5 µM [inhibitor, single point]
Cn1c(O)c(C(=Nc2ccc(F)cc2)c2ccccc2)c(=O)n(C)c1=O | inconclusive: 3.55 µM [inhibitor, single point]
C=CC[C@]1(O)CC[C@H]2[C@@H]3CCC4=CCCC[C@@H]4[C@H]3CC[C@@]21C | inactive

Quoted at random: 3 records from the list
SMILES | Potency
O=C1NC(=O)C(=Cc2ccc(-c3cc(Cl)ccc3[N+](=O)[O-])o2)C(=O)N1 | inconclusive: 12.6 µM [inhibitor, partial curve]
COc1ccc2[nH]cc(CCN)c2c1 | inactive
CNC(C)Cc1ccc(OC)cc1 (stereo unspecified) | inactive
